Experiments:
[1] = biological target: T1, Dual specificity tyrosine-phosphorylation-regulated kinase 1B (Homo sapiens, UniProt Q9Y463); test: Inhibition of DYRK1B (unknown origin) measured after 6 hrs in presence of ATP by Z'-LYTE assay
[2] = biological target: T1, Dual specificity tyrosine-phosphorylation-regulated kinase 1B; test: Inhibition of DYRK1B (unknown origin) at 1 uM by kinomescan method

The chains behind the UniProt entries cited, without tags or fusion partners.
UniProt Q9Y463, whole entry: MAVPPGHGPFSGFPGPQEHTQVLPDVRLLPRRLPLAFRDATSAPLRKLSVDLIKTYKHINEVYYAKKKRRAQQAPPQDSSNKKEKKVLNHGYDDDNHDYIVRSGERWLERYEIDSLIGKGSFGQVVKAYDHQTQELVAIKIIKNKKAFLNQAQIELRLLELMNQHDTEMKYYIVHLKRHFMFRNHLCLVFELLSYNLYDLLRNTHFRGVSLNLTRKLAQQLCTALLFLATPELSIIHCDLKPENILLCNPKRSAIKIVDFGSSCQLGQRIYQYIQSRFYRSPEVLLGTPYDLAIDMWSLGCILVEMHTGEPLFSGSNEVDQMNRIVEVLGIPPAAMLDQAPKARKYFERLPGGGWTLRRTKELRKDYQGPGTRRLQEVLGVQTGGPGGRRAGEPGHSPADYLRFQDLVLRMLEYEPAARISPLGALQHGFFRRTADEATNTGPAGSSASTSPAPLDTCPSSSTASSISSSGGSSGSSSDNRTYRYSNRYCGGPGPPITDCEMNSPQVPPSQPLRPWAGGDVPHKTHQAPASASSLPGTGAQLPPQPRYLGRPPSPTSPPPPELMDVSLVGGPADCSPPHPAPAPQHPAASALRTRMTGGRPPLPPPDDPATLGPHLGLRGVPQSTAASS

SMILES: CN1Cc2nn(C)c(C#N)c2-c2cnc3[nH]c(F)c(c3c2)-c2cn(nc2C(F)(F)F)CCCC1=O
- IC50 [1]: 5 nM
- IC50 [2]: 5 nM

From ChEMBL document CHEMBL5042558, “Selective Macrocyclic Inhibitors of DYRK1A/B” (ACS Med Chem Lett, 2022)
